Measurements reported in patent publication US12544428B2, “Controlled-release CNP agonists with reduced side-effects” (ASCENDIS PHARMA GROWTH DISORDERS A/S, priority 2016, dated 2026).
At least one peptide structure holds a part that was inferred or is arguable (an end, a ring closure or a residue).

Experiment: Growth study in FVB mice after 5 weeks treatment with CNP-38
Assay type: in vivo
Conditions: 50 nmol/kg/d, d 35
[1] = continuous subcutaneous infusion
[2] = daily subcutaneous bolus injection

## CC[C@H](C)[C@@H]1NC(=O)[C@H](CCCNC(=N)N)NC(=O)[C@H](CC(=O)O)NC(=O)[C@H](CC(C)C)NC(=O)[C@H](CCCCN)NC(=O)[C@H](CC(C)C)NC(=O)CNC(=O)[C@H](Cc2ccccc2)NC(=O)[C@@H](NC(=O)CNC(=O)[C@H](CCCCN)NC(=O)[C@H](CO)NC(=O)[C@H](CC(C)C)NC(=O)CNC(=O)[C@H](CCCCN)NC(=O)[C@H](CCCCN)NC(=O)[C@H](CC(N)=O)NC(=O)[C@H](C)NC(=O)CNC(=O)[C@H](CCCCN)NC(=O)[C@H](Cc2ccc(O)cc2)NC(=O)[C@H](CCCCN)NC(=O)[C@H](CCCNC(=N)N)NC(=O)[C@H](C)NC(=O)[C@H](CC(N)=O)NC(=O)[C@@H]2CCCN2C(=O)[C@H](Cc2c[nH]cn2)NC(=O)[C@H](CCC(=O)O)NC(=O)[C@H](CCC(N)=O)NC(=O)[C@@H](N)CC(C)C)CSSC[C@@H](C(=O)O)NC(=O)CNC(=O)[C@H](CC(C)C)NC(=O)CNC(=O)[C@H](CO)NC(=O)[C@H](CCSC)NC(=O)[C@H](CO)NC(=O)CNC1=O [CNP-38]
[1]
  right femur length compared to vehicle treated animals: 107.5%
  right tibia length compared to vehicle treated animals: 112.2%
  total body length compared to vehicle treated animals: 121.7%
[2]
  right femur length compared to vehicle treated animals: 105.6%
  right tibia length compared to vehicle treated animals: 104.0%
  total body length compared to vehicle treated animals: 110.2%
